Data as given in PubChem BioAssay AID504774 (Drosophila RNAi Screening Center, 2011)

- Assay: 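Fly genes whose loss alters survival after alkylation damage to DNA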 (primary screen)
- Cell system: Drosophila Kc167 cells
- Reagents: long dsRNA against Drosophila genes, about 0.25 µg dsRNA per well
- Duration: about 6 days: 3 days knock-down, then 3 days with or without MMS
- Treatment: methyl methanesulphonate 0.004% (w/v) for 3 days after knock-down
- Read-out: 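Viability in wells given MMS, read as ATP luminescence, normalised by quantiles plate by plate and averaged across replicates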
- Direction: mean viability with MMS and viability with MMS: higher = more surviving cells after MMS
The deposit covers about 23,000 reagents; this is a random part of those that have a named target and a result. 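Values are quantile-normalised luminescence on an arbitrary scale; higher means more cells surviving MMS.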 Reagents against one gene are numbered here.

gene	dsRNA no.	mean viability with MMS	viability with MMS, replicate 1	viability with MMS, replicate 2
Grl40a (Gustatory receptor-like 40a)	1	3.43e6	3.89e6	3.90e6
CG14960	1	3.63e6	3.99e6	4.19e6
Smyd4-4 (SET and MYND domain containing, class 4, member 4)	1	3.63e6	4.15e6	4.09e6
CG42249	1	3.58e6	4.06e6	4.04e6
CG42249	2	3.61e6	4.16e6	4.00e6
CG15544	1	3.67e6	4.20e6	4.12e6
ect (ectodermal)	1	3.67e6	4.04e6	3.91e6
ect (ectodermal)	2	3.48e6	3.83e6	4.06e6
ect (ectodermal)	3	3.44e6	3.93e6	3.92e6
CG31294	1	3.60e6	4.02e6	4.12e6
gcm (glial cells missing)	1	3.52e6	4.05e6	3.94e6
CG31128	1	3.54e6	4.17e6	3.85e6
CG6441	1	3.35e6	3.88e6	3.64e6
CG6051	1	3.70e6	4.26e6	4.10e6
GCS1 (Glucosidase 1)	1	3.60e6	3.96e6	4.26e6
Khc-73 (Kinesin heavy chain 73)	1	3.72e6	4.20e6	4.23e6
Spn28B (Serpin 28B)	1	3.58e6	4.08e6	3.94e6
Kank	1	3.72e6	4.15e6	4.15e6
Kank	2	3.26e6	3.66e6	3.78e6
CG15650	1	3.47e6	3.99e6	3.86e6
Schip1 (Schwannomin interacting protein 1)	1	3.60e6	4.46e6	3.71e6
CG6293	1	3.72e6	4.17e6	4.28e6
zetaTry (zetaTrypsin)	1	3.40e6	4.06e6	3.48e6
CG8475	1	3.60e6	3.99e6	4.19e6
Pmm2 (Phosphomannomutase type 2)	1	3.62e6	4.23e6	3.92e6
phol (pleiohomeotic like)	1	3.40e6	3.81e6	3.94e6
ema (endosomal maturation defective)	1	3.34e6	3.68e6	3.88e6
CG5188	1	3.51e6	3.87e6	4.11e6
CG3597	1	3.53e6	4.12e6	3.88e6
CG42633	1	3.47e6	3.94e6	3.95e6
Or65c (Odorant receptor 65c)	1	3.40e6	3.78e6	3.99e6
jet (jetlag)	1	3.40e6	3.91e6	3.67e6
mRpL10 (mitochondrial ribosomal protein L10)	1	3.19e6	3.88e6	3.16e6
CG17919	1	3.67e6	4.24e6	4.10e6
CG5521	1	3.57e6	4.09e6	4.01e6
Eaat1 (Excitatory amino acid transporter 1)	1	3.70e6	4.12e6	4.27e6
CG5103	1	3.67e6	4.21e6	4.08e6
VGAT (Vesicular GABA Transporter)	1	3.40e6	3.90e6	3.86e6
ppk24 (pickpocket 24)	1	3.29e6	3.65e6	3.68e6
CG34015	1	3.61e6	4.09e6	4.05e6
CG10877	1	3.66e6	4.20e6	4.10e6
CG3225	1	3.52e6	3.90e6	4.06e6
CG8117	1	3.57e6	4.10e6	4.00e6
Ir60d (Ionotropic receptor 60d)	1	3.61e6	4.06e6	4.12e6
CG14511	1	3.46e6	3.89e6	3.92e6
CG13744	1	3.55e6	4.11e6	3.94e6
Ubc2 (Ubiquitin conjugating enzyme 2)	1	3.55e6	4.01e6	4.03e6
Ubc2 (Ubiquitin conjugating enzyme 2)	2	3.58e6	4.15e6	3.98e6
Spn88Ea (Serpin 88Ea)	1	3.62e6	4.05e6	4.19e6
CG13725	1	1.73e6	3.80e6	
CG16863	1	3.49e6	3.95e6	3.97e6
CG17030	1	3.60e6	4.27e6	3.91e6
et (eye transformer)	1	3.45e6	3.92e6	3.91e6
Pez	1	3.66e6	4.09e6	4.16e6
CG34396	1	3.39e6	3.87e6	3.76e6
CG34396	2	3.28e6	3.76e6	3.68e6
Cyp313a4 (Cytochrome P450 313a4)	1	3.47e6	3.94e6	3.97e6
Nna1 (Nna1 carboxypeptidase)	1	3.60e6	4.28e6	3.95e6
Ace (Acetylcholine esterase)	1	3.64e6	4.13e6	4.07e6
Ace (Acetylcholine esterase)	2	3.49e6	3.94e6	3.97e6
Dora (Dorado)	1	3.50e6	3.93e6	4.02e6
Dora (Dorado)	2	3.78e6	4.16e6	4.30e6
Dora (Dorado)	3	3.51e6	4.00e6	3.98e6
Dora (Dorado)	4	3.25e6	3.75e6	3.75e6
Mlf (Myelodysplasia/myeloid leukemia factor)	1	3.26e6	3.69e6	3.65e6
CG40948 (retired record)	1	2.23e6	3.89e6	3.89e6
CG13616	1	3.54e6	4.03e6	3.99e6
Cpr92A (Cuticular protein 92A)	1	3.63e6	4.08e6	4.15e6

As entered above.
Under “viability with MMS, replicate 2”, Cpr92A (Cuticular protein 92A) shows 4.15e6
Result for CG34396 #2 in “viability with MMS, replicate 2”: 3.68e6
Schip1 (Schwannomin interacting protein 1), mean viability with MMS = 3.60e6
CG13725, viability with MMS, replicate 1 → 3.80e6
Under “viability with MMS, replicate 2”, CG3225 is entered as 4.06e6
CG6051, viability with MMS, replicate 1 = 4.26e6
